# According to the supplement of paper PMC10849652:
# The chains behind the UniProt entries cited, without tags or fusion partners. Where a name states a change or a piece, a line headed by the entry shows the natural chain unless it says otherwise.
# UniProt Q93083: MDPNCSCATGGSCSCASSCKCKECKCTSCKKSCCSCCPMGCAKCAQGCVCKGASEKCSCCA
# UniProt O43312: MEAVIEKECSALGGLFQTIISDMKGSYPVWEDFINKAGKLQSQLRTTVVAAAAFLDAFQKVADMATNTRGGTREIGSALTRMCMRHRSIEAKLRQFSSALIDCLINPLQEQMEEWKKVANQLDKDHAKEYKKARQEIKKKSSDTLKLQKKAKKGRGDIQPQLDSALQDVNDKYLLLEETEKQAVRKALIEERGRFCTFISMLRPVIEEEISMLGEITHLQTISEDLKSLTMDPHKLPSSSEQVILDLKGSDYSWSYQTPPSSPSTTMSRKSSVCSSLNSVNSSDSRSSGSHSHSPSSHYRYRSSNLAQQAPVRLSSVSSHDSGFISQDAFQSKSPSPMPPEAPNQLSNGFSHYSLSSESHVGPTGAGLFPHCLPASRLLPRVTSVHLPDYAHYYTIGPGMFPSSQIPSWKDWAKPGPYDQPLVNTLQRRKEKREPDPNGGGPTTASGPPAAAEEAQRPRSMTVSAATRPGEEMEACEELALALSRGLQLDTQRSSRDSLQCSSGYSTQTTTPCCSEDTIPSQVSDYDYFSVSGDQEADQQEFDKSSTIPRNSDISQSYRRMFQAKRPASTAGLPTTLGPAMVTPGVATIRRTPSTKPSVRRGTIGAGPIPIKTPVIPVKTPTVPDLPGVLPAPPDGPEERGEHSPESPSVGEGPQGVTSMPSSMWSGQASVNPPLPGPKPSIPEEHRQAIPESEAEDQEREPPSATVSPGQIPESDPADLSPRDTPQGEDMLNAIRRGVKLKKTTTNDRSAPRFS
# UniProt Q7Z6M4: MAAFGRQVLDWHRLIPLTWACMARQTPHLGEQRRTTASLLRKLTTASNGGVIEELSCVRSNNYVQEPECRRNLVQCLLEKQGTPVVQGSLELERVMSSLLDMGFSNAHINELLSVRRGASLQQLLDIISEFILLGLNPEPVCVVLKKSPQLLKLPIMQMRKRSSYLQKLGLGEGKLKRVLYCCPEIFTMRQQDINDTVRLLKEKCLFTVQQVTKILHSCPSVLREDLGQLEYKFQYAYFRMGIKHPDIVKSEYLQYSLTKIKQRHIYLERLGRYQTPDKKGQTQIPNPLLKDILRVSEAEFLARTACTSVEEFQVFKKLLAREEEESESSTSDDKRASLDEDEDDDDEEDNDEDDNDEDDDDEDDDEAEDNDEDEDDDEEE
# UniProt Q9Y2Z2: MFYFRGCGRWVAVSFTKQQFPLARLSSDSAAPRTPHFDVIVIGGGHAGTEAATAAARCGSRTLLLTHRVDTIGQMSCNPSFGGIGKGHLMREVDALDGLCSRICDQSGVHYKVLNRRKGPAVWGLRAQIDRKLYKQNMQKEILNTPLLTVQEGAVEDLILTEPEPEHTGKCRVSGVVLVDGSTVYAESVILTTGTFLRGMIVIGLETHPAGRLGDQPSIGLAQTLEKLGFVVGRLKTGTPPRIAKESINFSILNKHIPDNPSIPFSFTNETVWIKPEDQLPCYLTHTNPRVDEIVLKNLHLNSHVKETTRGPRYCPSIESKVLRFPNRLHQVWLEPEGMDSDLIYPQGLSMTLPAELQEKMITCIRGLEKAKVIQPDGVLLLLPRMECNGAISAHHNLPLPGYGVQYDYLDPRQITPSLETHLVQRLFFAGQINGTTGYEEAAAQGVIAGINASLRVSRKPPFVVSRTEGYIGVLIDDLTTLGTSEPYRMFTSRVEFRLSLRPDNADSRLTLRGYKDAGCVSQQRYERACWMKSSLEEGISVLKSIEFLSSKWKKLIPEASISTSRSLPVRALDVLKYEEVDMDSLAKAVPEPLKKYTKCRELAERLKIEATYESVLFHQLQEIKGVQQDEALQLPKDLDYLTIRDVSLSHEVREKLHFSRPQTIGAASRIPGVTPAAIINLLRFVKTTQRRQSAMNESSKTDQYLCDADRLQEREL
# UniProt P26038, whole entry, looked up: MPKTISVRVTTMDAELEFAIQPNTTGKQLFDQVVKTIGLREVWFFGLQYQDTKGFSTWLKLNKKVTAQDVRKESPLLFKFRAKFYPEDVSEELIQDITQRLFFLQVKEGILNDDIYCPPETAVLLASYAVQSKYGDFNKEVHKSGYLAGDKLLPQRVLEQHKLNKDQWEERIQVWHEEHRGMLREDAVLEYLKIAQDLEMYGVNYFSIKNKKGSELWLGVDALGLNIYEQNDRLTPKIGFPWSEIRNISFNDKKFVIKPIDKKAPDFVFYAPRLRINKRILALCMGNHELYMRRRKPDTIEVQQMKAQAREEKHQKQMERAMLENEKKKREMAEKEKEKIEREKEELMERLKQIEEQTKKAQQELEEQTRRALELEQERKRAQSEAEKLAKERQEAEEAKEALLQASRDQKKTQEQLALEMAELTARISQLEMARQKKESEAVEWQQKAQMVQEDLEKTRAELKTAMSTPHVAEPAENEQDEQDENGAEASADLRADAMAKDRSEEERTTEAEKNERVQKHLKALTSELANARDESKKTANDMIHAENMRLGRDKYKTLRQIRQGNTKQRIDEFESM
# UniProt P03928: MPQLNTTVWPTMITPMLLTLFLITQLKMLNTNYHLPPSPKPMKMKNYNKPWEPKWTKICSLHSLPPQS
# UniProt Q6P1R3: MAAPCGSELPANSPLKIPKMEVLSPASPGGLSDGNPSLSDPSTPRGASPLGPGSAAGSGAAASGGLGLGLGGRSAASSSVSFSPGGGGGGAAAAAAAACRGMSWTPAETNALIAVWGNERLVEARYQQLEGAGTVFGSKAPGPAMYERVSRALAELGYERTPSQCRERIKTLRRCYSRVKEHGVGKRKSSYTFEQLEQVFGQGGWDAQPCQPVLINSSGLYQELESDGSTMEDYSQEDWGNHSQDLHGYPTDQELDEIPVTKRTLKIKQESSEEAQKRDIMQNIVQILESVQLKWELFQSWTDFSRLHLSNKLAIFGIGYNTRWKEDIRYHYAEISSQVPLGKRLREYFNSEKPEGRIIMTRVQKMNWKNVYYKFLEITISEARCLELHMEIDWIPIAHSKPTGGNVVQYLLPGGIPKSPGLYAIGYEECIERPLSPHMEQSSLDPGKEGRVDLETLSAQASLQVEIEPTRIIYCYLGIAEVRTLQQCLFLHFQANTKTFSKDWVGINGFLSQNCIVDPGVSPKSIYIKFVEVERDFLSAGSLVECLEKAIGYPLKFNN
# UniProt P11055, whole entry, looked up: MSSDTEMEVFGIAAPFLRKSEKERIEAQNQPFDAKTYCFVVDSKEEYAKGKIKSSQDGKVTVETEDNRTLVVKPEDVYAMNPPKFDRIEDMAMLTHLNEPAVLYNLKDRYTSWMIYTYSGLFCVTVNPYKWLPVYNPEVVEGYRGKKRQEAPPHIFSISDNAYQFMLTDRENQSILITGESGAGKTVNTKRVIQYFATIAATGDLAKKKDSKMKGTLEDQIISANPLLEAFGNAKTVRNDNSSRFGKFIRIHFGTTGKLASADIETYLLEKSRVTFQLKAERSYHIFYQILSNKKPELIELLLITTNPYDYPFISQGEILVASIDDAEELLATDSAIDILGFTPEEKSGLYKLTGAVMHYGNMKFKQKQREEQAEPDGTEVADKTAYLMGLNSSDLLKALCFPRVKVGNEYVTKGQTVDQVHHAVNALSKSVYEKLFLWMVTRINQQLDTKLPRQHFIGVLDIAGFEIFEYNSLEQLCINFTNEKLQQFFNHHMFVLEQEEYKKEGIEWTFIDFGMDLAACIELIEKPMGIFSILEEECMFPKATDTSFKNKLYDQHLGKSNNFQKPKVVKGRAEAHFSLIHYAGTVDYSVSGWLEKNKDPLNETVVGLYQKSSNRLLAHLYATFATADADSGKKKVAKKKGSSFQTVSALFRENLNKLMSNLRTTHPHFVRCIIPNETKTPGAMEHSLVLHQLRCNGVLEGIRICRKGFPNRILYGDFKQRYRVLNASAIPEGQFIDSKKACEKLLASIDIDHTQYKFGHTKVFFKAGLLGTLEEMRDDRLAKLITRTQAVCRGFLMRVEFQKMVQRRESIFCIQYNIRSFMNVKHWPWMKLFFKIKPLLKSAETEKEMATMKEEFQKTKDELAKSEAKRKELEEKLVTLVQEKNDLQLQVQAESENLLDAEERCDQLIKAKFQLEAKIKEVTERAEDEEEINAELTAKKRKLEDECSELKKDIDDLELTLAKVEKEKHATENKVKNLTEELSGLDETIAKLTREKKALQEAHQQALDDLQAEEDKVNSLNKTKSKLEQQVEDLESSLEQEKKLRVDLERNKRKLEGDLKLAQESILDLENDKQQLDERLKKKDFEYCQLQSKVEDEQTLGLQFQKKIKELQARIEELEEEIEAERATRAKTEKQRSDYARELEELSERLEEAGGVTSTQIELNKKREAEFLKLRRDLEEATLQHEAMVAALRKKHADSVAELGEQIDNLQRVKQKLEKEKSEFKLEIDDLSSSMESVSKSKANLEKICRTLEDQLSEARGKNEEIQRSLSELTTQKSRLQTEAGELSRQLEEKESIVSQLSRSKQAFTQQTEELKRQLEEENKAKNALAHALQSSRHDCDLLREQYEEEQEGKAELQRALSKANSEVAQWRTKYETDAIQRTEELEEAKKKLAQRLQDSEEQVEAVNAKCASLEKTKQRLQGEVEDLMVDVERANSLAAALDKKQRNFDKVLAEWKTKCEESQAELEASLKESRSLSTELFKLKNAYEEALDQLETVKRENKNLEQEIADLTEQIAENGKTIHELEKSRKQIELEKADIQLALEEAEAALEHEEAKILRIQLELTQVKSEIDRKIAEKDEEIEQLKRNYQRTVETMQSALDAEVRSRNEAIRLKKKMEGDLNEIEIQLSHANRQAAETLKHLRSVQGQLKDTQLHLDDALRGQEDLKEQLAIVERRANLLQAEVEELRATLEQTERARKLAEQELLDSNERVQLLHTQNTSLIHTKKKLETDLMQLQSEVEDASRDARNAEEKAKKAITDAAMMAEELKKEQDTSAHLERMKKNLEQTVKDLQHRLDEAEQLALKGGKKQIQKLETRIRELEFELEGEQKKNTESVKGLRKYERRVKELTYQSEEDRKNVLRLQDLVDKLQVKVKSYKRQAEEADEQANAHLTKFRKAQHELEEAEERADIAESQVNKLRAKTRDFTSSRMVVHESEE
# UniProt P00414, whole entry, looked up: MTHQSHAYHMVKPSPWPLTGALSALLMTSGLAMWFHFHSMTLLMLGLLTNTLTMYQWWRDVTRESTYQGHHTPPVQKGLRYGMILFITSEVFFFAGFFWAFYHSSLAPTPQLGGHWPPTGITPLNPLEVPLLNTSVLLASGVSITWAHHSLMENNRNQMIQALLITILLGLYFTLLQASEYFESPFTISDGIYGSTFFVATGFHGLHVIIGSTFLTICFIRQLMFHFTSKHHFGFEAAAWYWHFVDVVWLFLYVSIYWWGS
# UniProt P03905, whole entry, looked up: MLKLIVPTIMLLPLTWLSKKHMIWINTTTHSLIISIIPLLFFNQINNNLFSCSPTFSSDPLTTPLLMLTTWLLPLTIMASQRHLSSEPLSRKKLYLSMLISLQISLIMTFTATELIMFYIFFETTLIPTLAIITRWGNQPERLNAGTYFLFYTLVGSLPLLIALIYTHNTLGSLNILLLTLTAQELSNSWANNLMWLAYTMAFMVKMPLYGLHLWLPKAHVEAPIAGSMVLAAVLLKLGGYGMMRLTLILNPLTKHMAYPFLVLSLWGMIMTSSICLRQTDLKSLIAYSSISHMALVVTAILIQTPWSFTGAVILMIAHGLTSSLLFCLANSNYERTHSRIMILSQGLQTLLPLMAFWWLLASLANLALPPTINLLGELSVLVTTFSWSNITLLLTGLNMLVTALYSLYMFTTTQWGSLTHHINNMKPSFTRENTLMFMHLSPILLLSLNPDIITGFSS
# UniProt Q96DP5: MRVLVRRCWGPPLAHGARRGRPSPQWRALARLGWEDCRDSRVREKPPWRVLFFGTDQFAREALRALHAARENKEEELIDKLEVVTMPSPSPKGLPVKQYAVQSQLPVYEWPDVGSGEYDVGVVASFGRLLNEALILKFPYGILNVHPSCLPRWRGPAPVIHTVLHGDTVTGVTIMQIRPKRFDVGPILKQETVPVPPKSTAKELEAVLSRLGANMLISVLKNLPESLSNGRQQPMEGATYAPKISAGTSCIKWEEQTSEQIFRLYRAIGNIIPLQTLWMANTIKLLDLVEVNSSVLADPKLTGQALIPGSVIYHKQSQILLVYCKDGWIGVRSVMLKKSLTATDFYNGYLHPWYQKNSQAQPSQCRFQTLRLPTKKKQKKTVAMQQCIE
# UniProt P82909: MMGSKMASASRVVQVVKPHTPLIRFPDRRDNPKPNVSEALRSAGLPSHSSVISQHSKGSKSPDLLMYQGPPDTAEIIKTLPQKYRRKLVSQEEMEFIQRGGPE
# UniProt Q9H2K0, whole entry, looked up: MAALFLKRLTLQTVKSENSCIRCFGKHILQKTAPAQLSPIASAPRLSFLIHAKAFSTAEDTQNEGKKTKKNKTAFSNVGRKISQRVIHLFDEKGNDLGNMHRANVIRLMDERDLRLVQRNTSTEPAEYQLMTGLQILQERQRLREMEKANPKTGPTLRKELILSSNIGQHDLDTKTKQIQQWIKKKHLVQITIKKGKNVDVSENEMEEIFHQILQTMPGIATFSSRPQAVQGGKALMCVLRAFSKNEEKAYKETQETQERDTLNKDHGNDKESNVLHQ
# The other results are listed elsewhere or left out.
# Compound: Cc1sc2c(c1C)C(c1ccc(Cl)cc1)=N[C@@H](CC(=O)OC(C)(C)C)c1nnc(C)n1-2
# Test: log2 fold change, soluble protein after heating vs DMSO (PISA); higher = thermal stabilisation; K562 cells, 10 uM, 30 min; active = over 0.2 and 3.5 SD of the protein, either way, in both replicates (recomputed)
# In short: (§1)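 Soluble protein was defined as the supernatant after 21,000xg for 90 min. It came from K562 cells at 2×10^6 cells/mL given 10 μM compound for 30 min, heated in aliquots for 3 min across 48°C-58°C, pooled, and extracted in PBS with 0.5% NP-40 at 4°C, and was quantified by TMTpro 16plex LC-MS/MS with equalised channel sums. Thermal stability against control samples, from duplicates, is reported as log2 fold change.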
row,Target,log2 fold change
1,MT1L (UniProt Q93083),inactive: -0.061
2,MTSS1 isoform 5 (UniProt O43312),inactive: -0.072
3,MTERF4 (UniProt Q7Z6M4),inactive: 0.061
4,MXRA8 isoform 2 (UniProt Q9BRK3),inactive: -0.041
5,MTO1 isoform 6 (UniProt Q9Y2Z2),inactive: 0
6,MSN (UniProt P26038),inactive: -0.015
7,MTERF3 (UniProt Q96E29),inactive: 0.048
8,MT-ATP8 (UniProt P03928),inactive: 0.034
9,MRPL9 (UniProt Q9BYD2),inactive: 0.089
10,MTRF1L (UniProt Q9UGC7),inactive: -0.061
11,MSANTD2 (UniProt Q6P1R3),inactive: 0.028
12,MYH3 (UniProt P11055),inactive: -0.156
13,MT-CO3 (UniProt P00414),inactive: -0.185
14,MTHFSD (UniProt Q2M296),inactive: 0.042
15,MYBBP1A isoform 2 (UniProt Q9BQG0),inactive: -0.046
16,MT-ND4 (UniProt P03905),inactive: -0.057
17,MTA3 (UniProt Q9BTC8),inactive: -0.11
18,MRPS11 (UniProt P82912),inactive: 0.187
19,MYO18B isoform 3 (UniProt Q8IUG5),inactive: 0.23
20,MRPL57 (UniProt Q9BQC6),inactive: 0.059
21,MVB12A (UniProt Q96EY5),inactive: 0.012
22,MTRES1 (UniProt Q9P0P8),inactive: 0.048
23,MTURN (UniProt Q8N3F0),inactive: 0.106
24,MRRF (UniProt Q96E11),inactive: 0.026
25,MTFMT (UniProt Q96DP5),inactive: 0.025
26,MRPS23 (UniProt Q9Y3D9),inactive: 0.076
27,MRPS36 (UniProt P82909),inactive: 0.051

# Compound: c1ccc([C@@H]2C[C@H]2NC2CCNCC2)cc1
# Test: as above
# In short: as §1
row,Target,log2 fold change
1,MTERF4 (UniProt Q7Z6M4),inactive: 0.04
2,MXRA8 isoform 2 (UniProt Q9BRK3),inactive: 0.035
3,MTO1 isoform 6 (UniProt Q9Y2Z2),inactive: -0.079
4,MSN (UniProt P26038),inactive: -0.028
5,MRPL9 (UniProt Q9BYD2),inactive: 0.01
6,MTRF1L (UniProt Q9UGC7),inactive: 0.022
7,MTHFD1L (UniProt B7ZM99),inactive: -0.053
8,MYH3 (UniProt P11055),inactive: 0.09
9,MT-CO3 (UniProt P00414),inactive: -0.178
10,MTHFSD (UniProt Q2M296),inactive: 0.039
11,MYBBP1A isoform 2 (UniProt Q9BQG0),inactive: 0.034
12,MT-ND4 (UniProt P03905),inactive: 0.036
13,MYL3 (UniProt P08590),inactive: -0.02
14,MYO19 (UniProt Q96H55),inactive: 0.088
15,MRPS11 (UniProt P82912),inactive: -0.096
16,MTHFD2L (UniProt Q9H903),inactive: -0.058
17,MYH6 (UniProt P13533),inactive: -0.183
18,MRRF (UniProt Q96E11),inactive: 0.048
19,MTIF3 (UniProt Q9H2K0),inactive: 0
20,MRPS23 (UniProt Q9Y3D9),inactive: -0.033
21,MRPS36 (UniProt P82909),inactive: 0.087
